Source: US20210221886A1
These are yes or no findings as the source states them, for the method shown. Binding calls can cover weak binding; strength is not graded here.

Molecular target: dog CD47 (dog (beagle))
Assay: flow cytometry on dog red blood cells, APC anti-human IgG Fc detection; upper curve

binding: binds
B1: anti-CD47 antibody STI-6643 (antibody, human IgG4, V domains shown)
VH: QVQLVQSGAEVKKPGASVKVSCKASGYTFTSYYMHWVRQAPGQGLEWMGIINPSGGSTSYAQKFQGRVTMTRDTSTSTVYMELSSLRSEDTAVYYCARSTLWFSEFDYWGQGTLVTVSS
VL: QSVLTQPSSVSASPGQSITISCSGTSSDVGGHNYVSWYQQHPGKAPKLMIYDVTKRPSGVPDRFSGSKSGNTASLTVSGLQAEDEADYYCLSYAGSRVYVFGTGTKLTVL
